All values are in %.
How 0% and 100% were set is not recorded. Most values in the screen are low, and negative values occur.
The compounds are a random part of those screened.

By UniProt entry, the sequences of proteins in these tests, tags left out.
UniProt E9BF75, entry or part of it: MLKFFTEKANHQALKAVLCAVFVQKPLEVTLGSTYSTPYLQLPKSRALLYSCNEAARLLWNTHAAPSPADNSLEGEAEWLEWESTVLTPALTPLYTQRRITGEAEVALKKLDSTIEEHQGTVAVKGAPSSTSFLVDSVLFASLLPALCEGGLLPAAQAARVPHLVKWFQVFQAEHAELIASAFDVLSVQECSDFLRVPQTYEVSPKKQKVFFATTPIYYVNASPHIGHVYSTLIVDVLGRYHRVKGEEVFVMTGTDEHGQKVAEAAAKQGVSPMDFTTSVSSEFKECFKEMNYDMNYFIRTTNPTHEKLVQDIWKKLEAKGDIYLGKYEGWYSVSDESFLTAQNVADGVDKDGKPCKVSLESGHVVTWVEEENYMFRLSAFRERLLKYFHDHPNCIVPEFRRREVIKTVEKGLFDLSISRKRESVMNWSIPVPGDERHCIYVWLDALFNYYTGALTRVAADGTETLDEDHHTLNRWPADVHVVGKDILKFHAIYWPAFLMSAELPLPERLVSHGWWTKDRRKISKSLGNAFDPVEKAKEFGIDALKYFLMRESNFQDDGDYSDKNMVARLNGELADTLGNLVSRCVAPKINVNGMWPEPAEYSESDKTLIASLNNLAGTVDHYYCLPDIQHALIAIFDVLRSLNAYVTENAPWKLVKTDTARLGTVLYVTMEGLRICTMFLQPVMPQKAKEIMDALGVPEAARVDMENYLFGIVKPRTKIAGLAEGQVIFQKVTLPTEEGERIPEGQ

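Methionyl-tRNA synthetase (putative), Leishmania donovani (UniProt E9BF75). Primary screen of methionyl-tRNA synthetase; the read-out is not stated. The test concentration is not given. Values are per cent inhibition. About 68,000 compounds were tested under these conditions; 0.035% (about 24) showed 50% or more at least once.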

| Compound | inhibition |
|---|---|
| `Cc1ccc(CN2CCN(Cc3ccncc3)[C@@H]3CS(=O)(=O)C[C@@H]32)cc1` | 8.242 |
| `CC(=O)c1cccc(OCCCC(=O)N(C)C2CCN(C)CC2)c1` | 10.05 |
| `CNc1cc(C2CN(Cc3scnc3C)CCO2)nc(C)n1` (centres unmarked) | 10.97 |
| `CCOCCCNC(=O)C1(C)CCC(=O)N1Cc1ccccc1F` (centres unmarked) | 10.38 |
| `CSc1[nH]nc(NC(=O)c2cccs2)c1C#N` | 12.9 |
| `C[C@@H]1CN(CCOc2ccc(F)cc2)CC[C@@]1(O)C1CCOCC1` | 15.19 |
| `Cc1ccc(NC(=O)NC(C)c2nc[nH]n2)cc1Cl` (centres unmarked) | 9.253 |
| `Cc1ccc(S(=O)(=O)N2C[C@H]3C[C@H](NC(=O)c4ccccn4)[C@H]3C2)cc1` | 3.236 |
| `COCCCNc1c(-c2ccccc2)c(=O)c1=O` | 13.47 |
| `Cc1cc(C(=O)N2CCC3(CC(=O)NC3=O)C2)c(-c2ccccc2)o1` (centres unmarked) | 6.266 |
| `CCCN(Cc1ccccc1O)S(=O)(=O)N(C)CC` | 4.693 |
| `c1ccc2ncc(CC3CNCCOC3)cc2c1` (centres unmarked) | 3.191 |
| `Cc1sc2nc(C(F)(F)F)nc(N3CCC(NS(C)(=O)=O)CC3)c2c1C` | 19.23 |
| `Cc1noc(C)c1CN1CCN(c2ccnc(-c3ccccc3)n2)CC1` | 3.763 |
| `Cc1oncc1C(=O)N1CCOCC2(CCN(c3ccccn3)C2)C1` (centres unmarked) | 4 |
| `CCOC(=O)CNC(=O)N1CCc2onc(-c3ccc(Cl)cc3)c2C1` | 9.964 |
| `COCC(=O)N1CCC2(CC1)COC(COCc1ccccn1)C2` (centres unmarked) | 11.34 |
| `O=c1[nH]c(CCN2CCCCC2Cn2cccn2)nc2ccccc12` (centres unmarked) | 16.87 |
| `Cc1ccc(C(=O)Nc2ccn(CCC(N)=O)n2)cc1` | 18.39 |
| `CCc1nnsc1C(=O)NCCCC(CC)(CC)C1OCCO1` | 10.99 |
| `CCO[C@@H]1CCN(C(=O)c2cnc(C)cn2)[C@@H]1Cc1cnn(C)c1` | -5.495 |
| `O=C(O)[C@]12CCCN(Cc3ccoc3)C[C@H]1CN(c1ncccn1)C2` | 6.84 |
| `CCC1c2ccccc2CCN1C(=O)c1ccc(OC)nn1` (centres unmarked) | 14.29 |
| `Cc1ccc(CC(=O)N2CCn3cc(Cn4cncn4)nc3C2)cc1` | 13.7 |
| `CNC(=O)C1CN(c2ccnc(C)n2)CCN1Cc1ccccc1` (centres unmarked) | 9.206 |
| `Cc1nc2ccccc2nc1CN(C)CC1CCCN1c1cccnn1` (centres unmarked) | 6.944 |
| `Cc1cnn(CC(C)NCc2csc(-c3ccsc3)n2)c1` (centres unmarked) | 15.28 |
| `CCOc1ncccc1NC(=O)N1CCOCC1C` (centres unmarked) | 10.65 |
| `CC(C)c1cccc(-n2cc(O)c(C(=O)NCCCn3cccn3)n2)c1` | 15.12 |
| `CC(C)(C)CN1CCC[C@H]1c1nc(-c2cncnc2N)no1` | 2.373 |
| `COc1ccc(CN2Cc3cn(C)nc3C(COCC3CC3)C2)cc1` (centres unmarked) | 13.02 |
| `CCCS(=O)(=O)N(C)C(=O)CCc1ccsc1` | 1.003 |
| `CCC(=O)N1CCC(NC(=O)c2cccc(-n3ccnc3)c2)C1` (centres unmarked) | 14.25 |
| `O=C(Cc1ccccc1O)NC1CCCN(c2ccccc2F)C1=O` (centres unmarked) | 10.53 |
| `COc1ccc(OCc2cc(C(=O)N3CCCCO3)n[nH]2)c(Cl)c1` | 13.51 |
| `COc1ccc(CN2C[C@H]3CN(c4cncnc4)C(=O)[C@H]3C2)cc1` | 7.527 |
| `CC(C)CN1CCS(=O)(=O)[C@@H]2CCN(S(=O)(=O)CC(C)C)CC[C@@H]21` | 8.651 |
| `CC(C)(O)CN1CCN(C(=O)c2cc(Cl)cc3cccnc23)CC1` | 2.454 |
| `COc1ccc(COCC(O)CNC(=O)Cc2ccc(C)cc2)cc1` (centres unmarked) | 25.5 |
| `O=C1NCC(c2ccc(Cl)cc2)Cc2[nH]c(CCN3CCOCC3)nc21` (centres unmarked) | 13.84 |
| `OC1(CN2CCCC2)CCCN(Cc2ccc(F)cc2Cl)C1` (centres unmarked) | 20.49 |
| `CCn1c(CNC(=O)c2ccc(N(C)C)nc2)nc2ccccc21` | 11.33 |
| `Cc1ncsc1CN1C[C@@H]2CCCO[C@@H]2[C@H](N(C)C(C)C)C1` | 6.574 |
| `CCOc1cc(CNC(C)c2ccc(F)cc2)ccn1` (centres unmarked) | 2.395 |
| `Cc1cc(C2CCC2)nc(N2CCC3(CCCNC3=O)C2)n1` (centres unmarked) | 8.732 |
| `CCOC(CC)C(=O)NCCC(=O)N1CCN(c2ccccn2)CC1` (centres unmarked) | 12.68 |
| `Cc1nc(CN2CCC3(CCCN(Cc4cccnc4)C3)C2=O)cs1` (centres unmarked) | 0.274 |
| `CC(C)(C)c1nccc(N2CCCCC2CNS(C)(=O)=O)n1` (centres unmarked) | 10.44 |
| `CCCNC(=O)Cn1nc(C(C)C)c2cnn(C(C)(C)C)c2c1=O` | 12.32 |
| `Cc1nc(CNC(=O)C(C)(C)c2ccc(F)cc2)no1` | 6.849 |
| `CCOC1CCCN(C(=O)c2nn(-c3ccccc3F)cc2O)C1` (centres unmarked) | 13.97 |
| `CCOc1ccc(CCCC(=O)N2CC[C@H](NC(C)=O)C2)cc1C` | 18.59 |
| `CCN(C(C)=O)C(c1cccnc1)c1cc(C)cc(C)c1` (centres unmarked) | 4.485 |
| `CNc1ncc(CN(C)Cc2cc(O)c3cc(C)cc(C)c3n2)cn1` | 12.94 |
| `CC(C)Nc1nc(O)cc(C(C)n2ncc3ccccc3c2=O)n1` (centres unmarked) | 15.58 |
| `CN(CC(=O)Nc1ccncc1)CC1CCCN1c1cccnn1` (centres unmarked) | 9.89 |
| `Cn1cc(CN2C[C@H]3CCN(C(=O)c4cscn4)C[C@H]3C2)cn1` | 4.375 |
| `CN(CCNC(=O)Nc1cnn(C)c1)Cc1ccc(F)cc1` | 11.15 |
| `NC(=O)NCC1CCCCN1Cc1nc(-c2ccco2)no1` (centres unmarked) | 14.8 |
| `COCCNC(=O)[C@@]12CCO[C@@H]1CCN(Cc1ccncc1)C2` | 4 |
| `CCN1C(=O)C2(CCOCC2)c2cc(NC(=O)c3cccn3C)ccc21` | 2.151 |
| `CN(C)CC1CN(Cc2nc(-c3cccnc3)no2)CCO1` (centres unmarked) | 18.44 |
| `CC(=O)N[C@@H]1Cc2ccccc2[C@H]1Nc1nnc(C2CC2)o1` | 14.44 |
| `CS(=O)(=O)NCC1CCCN(C(=O)Nc2ccccc2Cl)C1` (centres unmarked) | 19.72 |
| `CCCC(=O)NS(=O)(=O)c1ccc(C#N)c(C(F)(F)F)c1` | 13.24 |
| `CCN1CCC(NC(=O)CN2CCc3c(ncn3C3CC3)C2)CC1` | 15.3 |
| `CC(C)C(=O)N1CCC(CNc2nc(C(C)C)nc3c2cnn3C)CC1` | -1.446 |
| `O=c1cc2c(nn1CN1CCN(c3ccccc3)CC1)CCCC2` | 8.908 |
| `Cc1cc2c(N3CCCC(OCc4cccnc4)C3)ncnc2s1` (centres unmarked) | 10.05 |
| `OC1CCN(c2ccnc(NCCc3ccccc3Cl)n2)C1` (centres unmarked) | 12.13 |
| `CC(C)NC(=O)C1CN(Cc2ccc(F)cc2)CC12CCOCC2` (centres unmarked) | 19.31 |
| `O=C(NCC1CC[C@@H]2[C@@H]1OCCN2Cc1cccs1)c1ccco1` (some centres unmarked) | 7.317 |
| `Cc1noc(-c2cnc(NCC3CCCO3)nc2-c2ccco2)c1C` (centres unmarked) | 15.58 |
| `Cc1csc(CCNC(=O)C2CCOC2)n1` (centres unmarked) | 5.797 |
| `Cc1nccn1CCCN1CCCC(c2nccn2CC2CCC2)C1` (centres unmarked) | 17.78 |
| `CCCc1nc(C(=O)NCCN2CCC(c3ccccc3C)C2)cs1` (centres unmarked) | 19.06 |
| `NS(=O)(=O)CCNC(=O)c1ccc(-c2ccc(F)cc2)cc1F` | 15.75 |
| `CCc1nc(CC(=O)NC(C#N)CC)cs1` (centres unmarked) | -1.047 |
| `Cc1ccc(C(=O)N2CCC3(CCC(=O)N(CCCO)C3)CC2)c(O)c1` | 8.782 |
| `CCCNCc1ncc(C)c(OC)c1C` | 21.86 |

Some entries from above, unchanged:

{"compound": "Cc1ccc(S(=O)(=O)N2C[C@H]3C[C@H](NC(=O)c4ccccn4)[C@H]3C2)cc1", "inhibition": 3.236}
{"compound": "Cc1ccc(CC(=O)N2CCn3cc(Cn4cncn4)nc3C2)cc1", "inhibition": 13.7}
{"compound": "Cc1nc(CN2CCC3(CCCN(Cc4cccnc4)C3)C2=O)cs1", "stereo": "centres unmarked", "inhibition": 0.274}
{"compound": "NS(=O)(=O)CCNC(=O)c1ccc(-c2ccc(F)cc2)cc1F", "inhibition": 15.75}
{"compound": "CCCC(=O)NS(=O)(=O)c1ccc(C#N)c(C(F)(F)F)c1", "inhibition": 13.24}

Measurements from “University of Dundee, Small-Polar-MMV Screening Library” (2021), ChEMBL document CHEMBL3988442.